Experimental data published in the supplement of paper PMC5949888.
Most values lie at the floor of the assay. Slopes are relative: functional sequences can read slightly below zero.

tested on: Saccharomyces cerevisiae PS128 hsf1 delta, HSF1(1-493) fusion; test: growth estimate (transactivation domain function in HSF1 fusion, heat-shock survival) (a.u. (slope of normalised read count over time)); higher = stronger growth at 37°C, i.e. more transactivation activity; settings: library: random library

| Substance | growth estimate |
| --- | --- |
| SQTFGE | < -0.25 |
| FPLAPH | < -0.25 |
| LAWIVPGFIRSAFFLGLLLP | < -0.25 |
| SFVVVKTPAKKEVTSARLLW | < -0.25 |
| VHQRSPPTAGSSSWIKVPDP | < -0.25 |
| ETYSFWT | < -0.25 |
| IRLVIDFVRQFTSDGYSSRN | < -0.25 |
| YHNRGITNND | < -0.25 |
| RFHVRY | < -0.25 |
| TYLQGKGTWSSKFIRCLYPW | < -0.25 |
| HSSTFGYQLVYSGGIGPLTR | < -0.25 |
| YIRLHAAERKIFRYRPPWHN | < -0.25 |
| RNVKAR | < -0.25 |
| STESWLEGSVF | -0.221 |
| RIRGLKTPGSG | -0.241 |
| RFDS | < -0.25 |
| RPPSEQWVKIN | < -0.25 |
| AKKICRGPRRAFFQPWLTSS | < -0.25 |
| SFGRSL | < -0.25 |
| RSGGTHWNTPNGRRLAKTHT | < -0.25 |
| GHSAS | < -0.25 |
| TLGVTNASSIVPKLGLNTHS | < -0.25 |
| TRCSRSLNGP | < -0.25 |
| TIRFAPSSGTYYLFNRINGT | < -0.25 |
| LESAELGMGGLSR | < -0.25 |

| Substance | growth estimate |
| --- | --- |
| RTAPRTHRRNLAIDALHALS | < -0.25 |
| RSLRTIVGAIISGTHEH | < -0.25 |
| LPLVVCGTARELQ | < -0.25 |
| DLDRLLYDAWREGCFQWVPE | 5.71 |
| PINKFVVSPCPTLCAFFAGW | < -0.25 |
| EKARQ | < -0.25 |
| GIGRLRLGSARERN | < -0.25 |
| MLADGLGRRGLQLNTTVGHG | < -0.25 |
| RSRCSL | < -0.25 |
| TSSKGFGKLGRRGVTSVALG | < -0.25 |
| FFRRSRYADLLPYIHAILHV | < -0.25 |
| CRRWRSSAATV | < -0.25 |
| SCVNGSVLWG | < -0.25 |
| ILNLTRLLPFCASLMVENLA | < -0.25 |
| TDYDSEYQGSRNAMGQLYRT | < -0.25 |
| HETSRSECGGHESRLDRGNN | < -0.25 |
| RCISKATKP | < -0.25 |
| LDPASLM | < -0.25 |
| ESCELPVCQKAAEGGSGAGG | < -0.25 |
| RSFL | < -0.25 |
| LPGCRPYLLGGLGVHGTRCR | < -0.25 |
| QRFLIRRRDDRRGNANRISF | < -0.25 |
| MVIPGTIRP | < -0.25 |
| LPRRIALTRQQSAANRGYKN | < -0.25 |
| GTAEGRESLGGPNHTRSLSR | < -0.25 |

Looked up one by one from the list above:

| Substance | growth estimate |
| --- | --- |
| TDYDSEYQGSRNAMGQLYRT | < -0.25 |
| GIGRLRLGSARERN | < -0.25 |
| CRRWRSSAATV | < -0.25 |
| MLADGLGRRGLQLNTTVGHG | < -0.25 |
| MVIPGTIRP | < -0.25 |

Later entries.

| Substance | growth estimate |
| --- | --- |
| SGGLLAGNCRWA | < -0.25 |
| VLSAGDVAWLSPGCRDG | -0.217 |
| ARHN | < -0.25 |
| TRRHVKTTKKSAVRNSSRR | < -0.25 |
| SPLIVTSNSVYTNATRIVTT | < -0.25 |
| PLAFRPYASRSHRKVLPLDV | < -0.25 |
| HKGKSLT | < -0.25 |
| CQSIRGLGGMGKCWAACTFA | < -0.25 |
| GLEVLNCEGWSSCG | < -0.25 |
| MSWGKP | < -0.25 |
| NDVLI | 0.0846 |
| SSFGGERPMREVWLPGRADK | < -0.25 |
| ISGPGPLRYRLKSTSVCLMH | < -0.25 |
| EQHGLP | < -0.25 |
| RYVGGKQASTATLGCIDFLL | < -0.25 |
| MWVPGTGRAWDTLQPVVNGS | < -0.25 |
| RPFYGTHLAVLAEWGPS | < -0.25 |
| HHLMIEWWVIAVYATQAICA | < -0.25 |
| MRDATERGDRGNT | < -0.25 |
| LEARAAVATKIW | < -0.25 |
| VGQA | < -0.25 |
| YASFTIGGAFKKLL | < -0.25 |
| IMARN | < -0.25 |
| RRIYS | < -0.25 |
| RFWEGGGNRKVRRVARLFQD | < -0.25 |

| Substance | growth estimate |
| --- | --- |
| CRESTSTLREPIASSASFFA | < -0.25 |
| LLGANLQESSIGGQLSVVDP | < -0.25 |
| GRAVTQFTREGRG | < -0.25 |
| YVH | < -0.25 |
| ARLPFIQ | < -0.25 |
| IWSVCVPGTISESDSRS | < -0.25 |
| NLLAERKWI | < -0.25 |
| PVQTSWEGF | < -0.25 |
| IVLKRNHSG | < -0.25 |
| GVERVYASNTRRFMYIANGN | < -0.25 |
| DTTSGKNADDMTCATERACG | < -0.25 |
| RASGQHLVTNNTAR | < -0.25 |
| NSRRVSRR | < -0.25 |
| CRLWPFALE | < -0.25 |
| SSRGGITRDET | < -0.25 |
| YGWESMHLPRQAMEVVYPGL | < -0.25 |
| GQTWRASTRRGLRPRNLESG | < -0.25 |
| GIYILKLLIF | -0.112 |
| CGPMLWPRWPAGAPKGLPAV | < -0.25 |
| CRISTGSHPQWVPNSYNRTV | < -0.25 |
| GCVVLMLALENDMDGSSGTC | < -0.25 |
| VSTSVRGRYACFLNPTYR | < -0.25 |
| PPRCCWKTGRWARSQDRP | < -0.25 |
| VTATR | < -0.25 |
| KANALGSRPKRPVRQGDPVC | < -0.25 |
